Measured values from patent US20160376359A1.
Results are given in words; binding and its absence hold for the method and conditions named. Some results given as binding are weak or reduced against the parent protein; the word gives no strength.

Target: T1, human proBDNF protein (prokaryotically expressed, Example 1) (human) (UniProt P23560)
T1 sequence (looked up): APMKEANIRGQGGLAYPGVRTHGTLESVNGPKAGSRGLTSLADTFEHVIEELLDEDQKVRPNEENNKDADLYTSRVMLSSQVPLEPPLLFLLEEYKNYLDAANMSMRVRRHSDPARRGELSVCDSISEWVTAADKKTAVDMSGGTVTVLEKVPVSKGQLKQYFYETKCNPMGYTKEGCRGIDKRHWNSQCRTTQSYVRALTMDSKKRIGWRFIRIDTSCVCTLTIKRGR
Experiment: ELISA on coated human proBDNF with serial dilutions of CHO culture supernatant

binding: binds
B1: human-mouse chimeric antibody CH2B11 (antibody, V domains shown)
VH: EVKVVESGGGLVQPGGSLRLSCATSGFTFTDYYMSWVRQPPGKALEWLGFIRNKANGYTTEYSSSVKGRFTISRDNSQSILYLQMNTLRAEDSATYYCAITMDYWGQGTSVTVSS
VL: DIQMTQSPASLSASVGETVTITCRASGNIHNYLAWYQKKQGKSPHLLVYNAQTLADGVPSRFSGSASGTQYSLKIDSLQPEDFGSYYCQHFWSTPFTFGSGTKLEIKR
